This assay concerns the target T1, FLAG-TRIM39 (human) (UniProt Q9HCM9).
T1 sequence: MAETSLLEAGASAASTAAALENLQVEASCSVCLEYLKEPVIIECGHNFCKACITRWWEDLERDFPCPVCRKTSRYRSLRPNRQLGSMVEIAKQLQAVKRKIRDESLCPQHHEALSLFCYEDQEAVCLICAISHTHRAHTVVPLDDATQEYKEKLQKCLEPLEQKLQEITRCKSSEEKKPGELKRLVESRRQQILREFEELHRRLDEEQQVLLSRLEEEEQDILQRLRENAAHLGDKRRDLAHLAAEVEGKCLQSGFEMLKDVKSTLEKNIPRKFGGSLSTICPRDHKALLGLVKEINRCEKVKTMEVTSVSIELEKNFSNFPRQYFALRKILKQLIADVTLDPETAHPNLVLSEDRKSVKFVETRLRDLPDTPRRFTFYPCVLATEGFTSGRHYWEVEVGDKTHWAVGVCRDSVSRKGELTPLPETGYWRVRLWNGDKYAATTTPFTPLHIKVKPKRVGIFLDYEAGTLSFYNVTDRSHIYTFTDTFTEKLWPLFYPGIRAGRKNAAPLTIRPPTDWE
Nature of the assay: affinity purification with mass spectrometry; HEK293T transfected with empty vector or FLAG-TRIM39 for 48 h; total cell lysates immunoprecipitated with anti-FLAG antibody; mass spectrometry.

Chains of the proteins cited; added tags and fusions are not shown.
UniProt P51149: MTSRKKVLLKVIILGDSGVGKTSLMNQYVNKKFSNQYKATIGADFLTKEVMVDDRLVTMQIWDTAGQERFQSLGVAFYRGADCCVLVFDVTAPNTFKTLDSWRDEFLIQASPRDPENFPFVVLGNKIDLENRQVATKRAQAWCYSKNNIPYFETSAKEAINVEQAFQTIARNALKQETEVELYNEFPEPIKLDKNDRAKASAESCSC

Results are given in words; binding and its absence hold for the method and conditions named. Binding seen in cells or lysates may run through a third protein. Here binding means that the protein was enriched with, or labelled near, the bait; the list need not be complete. Sequences can lack the tags named with a protein.

Regarding Rab7A (from UniProt P51149 1-207), the binding entry is “binds”.

(Values after PMC8041807.)
